# Screening data, single-dose tests

By UniProt entry, the sequences of proteins in these tests, tags left out. Residues count along the entry.
UniProt P9WPC5, whole entry: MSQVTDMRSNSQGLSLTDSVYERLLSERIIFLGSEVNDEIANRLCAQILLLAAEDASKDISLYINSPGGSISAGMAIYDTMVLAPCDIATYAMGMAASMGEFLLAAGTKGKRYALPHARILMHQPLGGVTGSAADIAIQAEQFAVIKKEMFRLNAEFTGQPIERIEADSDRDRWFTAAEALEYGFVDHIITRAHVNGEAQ
UniProt P9WPC3, whole entry partner: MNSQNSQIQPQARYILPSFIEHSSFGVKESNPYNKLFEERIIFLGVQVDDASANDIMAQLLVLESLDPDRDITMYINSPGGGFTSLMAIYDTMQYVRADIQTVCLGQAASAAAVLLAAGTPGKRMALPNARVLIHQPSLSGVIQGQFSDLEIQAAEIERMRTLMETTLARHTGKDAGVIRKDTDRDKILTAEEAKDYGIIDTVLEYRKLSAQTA
UniProt Q4DA54, 1-478: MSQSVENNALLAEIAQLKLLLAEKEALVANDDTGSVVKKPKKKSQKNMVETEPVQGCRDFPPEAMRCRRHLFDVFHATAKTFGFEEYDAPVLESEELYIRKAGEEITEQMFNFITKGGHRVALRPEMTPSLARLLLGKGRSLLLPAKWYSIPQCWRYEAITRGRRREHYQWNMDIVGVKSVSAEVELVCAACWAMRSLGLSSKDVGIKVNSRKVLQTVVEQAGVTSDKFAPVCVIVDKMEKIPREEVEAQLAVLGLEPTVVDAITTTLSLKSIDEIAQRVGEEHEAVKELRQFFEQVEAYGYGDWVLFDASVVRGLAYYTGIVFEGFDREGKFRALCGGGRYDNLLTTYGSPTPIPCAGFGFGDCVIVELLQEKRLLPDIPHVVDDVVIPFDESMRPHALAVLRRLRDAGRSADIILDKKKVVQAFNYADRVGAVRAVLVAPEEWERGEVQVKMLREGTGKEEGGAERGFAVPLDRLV
UniProt I6X8D2, whole entry: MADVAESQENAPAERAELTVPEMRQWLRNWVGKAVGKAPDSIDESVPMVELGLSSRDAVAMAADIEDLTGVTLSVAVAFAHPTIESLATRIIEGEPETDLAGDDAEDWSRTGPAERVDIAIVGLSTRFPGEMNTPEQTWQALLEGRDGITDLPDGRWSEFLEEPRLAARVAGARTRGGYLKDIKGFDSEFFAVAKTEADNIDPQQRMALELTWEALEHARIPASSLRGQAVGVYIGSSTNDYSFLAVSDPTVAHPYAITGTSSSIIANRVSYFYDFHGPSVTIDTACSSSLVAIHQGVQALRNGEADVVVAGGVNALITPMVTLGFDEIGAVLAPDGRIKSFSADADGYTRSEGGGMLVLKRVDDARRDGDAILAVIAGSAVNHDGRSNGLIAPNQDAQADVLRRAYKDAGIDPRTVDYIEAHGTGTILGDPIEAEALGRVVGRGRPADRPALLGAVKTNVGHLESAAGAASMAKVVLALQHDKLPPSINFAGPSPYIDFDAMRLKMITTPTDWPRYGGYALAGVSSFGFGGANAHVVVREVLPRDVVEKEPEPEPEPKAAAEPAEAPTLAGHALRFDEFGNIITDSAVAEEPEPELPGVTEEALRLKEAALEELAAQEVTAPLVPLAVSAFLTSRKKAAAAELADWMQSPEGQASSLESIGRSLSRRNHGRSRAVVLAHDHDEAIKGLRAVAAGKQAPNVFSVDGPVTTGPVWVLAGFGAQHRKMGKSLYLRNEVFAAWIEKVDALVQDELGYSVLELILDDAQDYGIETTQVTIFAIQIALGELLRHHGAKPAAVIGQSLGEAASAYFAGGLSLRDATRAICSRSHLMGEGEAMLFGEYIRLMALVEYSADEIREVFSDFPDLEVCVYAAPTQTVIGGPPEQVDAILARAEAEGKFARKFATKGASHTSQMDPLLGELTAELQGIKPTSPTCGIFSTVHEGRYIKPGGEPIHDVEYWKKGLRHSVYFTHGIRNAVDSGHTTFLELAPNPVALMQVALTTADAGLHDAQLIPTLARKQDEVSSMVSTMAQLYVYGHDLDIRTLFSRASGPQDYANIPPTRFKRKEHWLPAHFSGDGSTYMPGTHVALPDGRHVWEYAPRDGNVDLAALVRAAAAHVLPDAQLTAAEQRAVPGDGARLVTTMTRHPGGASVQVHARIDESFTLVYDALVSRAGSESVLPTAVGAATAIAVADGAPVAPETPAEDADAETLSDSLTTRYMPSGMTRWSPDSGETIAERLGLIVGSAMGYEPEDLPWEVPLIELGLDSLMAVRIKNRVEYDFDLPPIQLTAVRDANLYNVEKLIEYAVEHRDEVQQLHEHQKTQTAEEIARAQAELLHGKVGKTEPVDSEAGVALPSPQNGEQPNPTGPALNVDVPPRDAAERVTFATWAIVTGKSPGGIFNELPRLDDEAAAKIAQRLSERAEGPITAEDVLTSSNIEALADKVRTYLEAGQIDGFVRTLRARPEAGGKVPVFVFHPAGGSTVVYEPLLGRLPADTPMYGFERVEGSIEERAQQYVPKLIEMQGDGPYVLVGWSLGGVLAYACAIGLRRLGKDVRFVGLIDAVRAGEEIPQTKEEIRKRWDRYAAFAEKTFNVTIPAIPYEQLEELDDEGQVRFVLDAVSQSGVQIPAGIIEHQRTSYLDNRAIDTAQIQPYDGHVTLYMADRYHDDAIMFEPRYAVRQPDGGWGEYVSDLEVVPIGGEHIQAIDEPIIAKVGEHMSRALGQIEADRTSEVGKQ
UniProt Q8IDJ8, 1-583: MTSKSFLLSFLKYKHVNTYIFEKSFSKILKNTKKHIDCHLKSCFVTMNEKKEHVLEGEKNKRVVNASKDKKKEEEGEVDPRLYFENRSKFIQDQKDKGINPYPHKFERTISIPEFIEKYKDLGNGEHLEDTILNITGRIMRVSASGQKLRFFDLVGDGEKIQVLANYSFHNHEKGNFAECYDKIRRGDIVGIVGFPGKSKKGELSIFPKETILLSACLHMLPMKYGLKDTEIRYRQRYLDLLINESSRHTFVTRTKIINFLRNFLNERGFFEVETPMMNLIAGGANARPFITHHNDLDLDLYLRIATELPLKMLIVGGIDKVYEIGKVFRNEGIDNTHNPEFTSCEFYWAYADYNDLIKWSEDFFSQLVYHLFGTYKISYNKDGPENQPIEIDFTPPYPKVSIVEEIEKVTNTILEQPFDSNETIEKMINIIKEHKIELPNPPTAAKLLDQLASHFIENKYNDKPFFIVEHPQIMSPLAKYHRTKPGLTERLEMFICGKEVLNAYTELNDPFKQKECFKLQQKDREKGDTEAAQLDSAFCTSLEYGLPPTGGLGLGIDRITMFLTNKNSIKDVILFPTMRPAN

From ChEMBL document CHEMBL3988442, “University of Dundee, Small-Polar-MMV Screening Library” (2021).

A: 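Protease assay of ClpP1P2, read by the AMC dye that it sets free. Target: ClpP1P2, Mycobacterium tuberculosis (UniProt P9WPC5 and UniProt P9WPC3). Tested at 50 µM. Higher reads as stronger inhibition, judged from the few compounds that gave an IC50. Most other retested compounds had strongly negative values. About 69,000 compounds were tested under these conditions; 0.015% (about 10) showed 50% or more at least once.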
B: 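Assay of Toxoplasma gondii numbers, read through their beta-galactosidase reporter with a colour substrate. Tested at 10 µM. The record gives no direction; the compounds picked for IC50 retests had high values, so higher reads as fewer parasites. Of about 67,000 compounds tested this way, about 260 (0.38%) reached 50% or more in at least one test.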
C: 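Enzyme assay of histidyl-tRNA synthetase; the read-out is not stated. Target: Histidine-tRNA ligase, Trypanosoma cruzi CL Brener (UniProt Q4DA54). Tested at 30 µM. Higher reads as stronger inhibition (inferred: compounds with an IC50 in retests scored well above the rest). Size under these conditions: about 69,000 compounds, about 31 of them at 50% or above in at least one test.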
D: 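Polyketide synthase Pks13, Mycobacterium tuberculosis (UniProt I6X8D2). Enzyme assay of the thioesterase domain of polyketide synthase 13; the read-out is not stated. Concentration: 30 µM. The record gives no direction; the compounds picked for IC50 retests had high values, so higher reads as stronger inhibition. About 67,000 compounds were tested under these conditions; 0.46% (about 300) showed 50% or more at least once.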
E: 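Enzyme assay of the cytosolic lysyl-tRNA synthetase in 384-well plates, read by luminescence. Target: Lysine-tRNA ligase, Plasmodium falciparum 3D7 (UniProt Q8IDJ8). Concentration: 30 µM. Higher reads as stronger inhibition, judged from the few compounds that gave an IC50. About 69,000 compounds were tested under these conditions; 0.071% (about 49) showed 50% or more at least once.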

Results are given as percent effect.
The controls that fix the scale are not given in the record; negative values are as filed.
This is an unselected part of the compounds tested.

- [H][C@@]12CCN(Cc3ccc(C)o3)C[C@@]1([H])[C@H](C(=O)NCC1CC1)CCO2 : B: 0.5634%
- O=C(NCCn1nc2ccccn2c1=O)c1cc(-c2ccccc2)[nH]n1 : A: -32.95%; B: 2.357%; C: -7.5%; D: -1.556%; E: 3.672%
- O=C(CCC1CCN(Cc2ncc[nH]2)CC1)Nc1ccccc1Cl : A: -8.123%; B: -1.532%; C: 4.132%; D: 4.336%; E: 1.212%
- COc1ccc(N2CCNC(C(N)=O)C2)cc1 (centres undefined) : A: -15.78%; B: 2.614%; C: 5.747%; D: 2.827%; E: -1.801%
- CCCNC(=O)c1nn(CC)cc1NC(=O)c1cn(C)nc1C : A: 19.71%; B: 11.65%; C: 5.699%; D: -25.01%; E: 7.031%
- CN(C)Cc1cnc2n1CCN(Cc1ccsc1)CC2 : A: -6.074%; C: 3.306%; D: 14.97%; E: 2.39%
- O=C(O)C(F)(F)F.O=C(c1cnccn1)N1CCC(F)(F)C2(CCN(c3ccccn3)C2)C1 (centres undefined) : B: -6.433%
- CC(C)(C)c1cn2nc(N3CCCC3Cn3cccn3)sc2n1 (centres undefined) : A: -17.69%; B: -0.5612%; C: -3.333%; D: 5.506%; E: 0.9545%
- CS(=O)(=O)NCCc1cccc2cccnc12 : A: 11.71%; B: -5.502%; C: -5.732%; D: -20.69%; E: -3.053%
- Cc1nn(C)c(Cl)c1C1CCCN1Cc1noc(C2CC2)n1 (centres undefined) : A: -1.564%; B: -1.842%; C: 6.358%; D: -0.5081%; E: 1.667%
- [H][C@]12CN(Cc3nc(C)c[nH]3)CC[C@@]1(O)CCN(C(C)=O)C2 : B: -2.259%
- O=C(Nc1cccnc1)C1CN(C(=O)c2ccc3c(c2)OCO3)C1 : A: -14.87%; B: -19.16%; C: 4.848%; D: -21.87%; E: 1.87%
- CCc1c(C(=O)N2C[C@H]3CC[C@@H]2CN(c2cnccn2)C3)csc1C : A: -9.15%; C: 5.319%; D: -28.85%; E: 1.17%
- COc1ccc(C(=O)NCCN(C)C)c(I)c1 : A: -0.2015%; B: 11.79%; C: 4.663%; D: -16.25%; E: 9.693%
- [H][C@@]12C[C@H](C(=O)NCc3ccccc3)[C@@]([H])(CN(C(=O)NC3CCCC3)C1)O2 : B: -2.794%
- [H][C@@]12CCN(C(=O)c3ccc[nH]3)[C@]1([H])CC(=O)N2CCOC : B: 1.849%
- O=C(C1CC1)N1CCC(Oc2ccccc2Cl)CC1 : A: -7.171%; B: -2.185%; C: 8.929%; D: 6.381%; E: -2.455%
- CN(Cc1cccnc1)Cc1cn2c(n1)CN(C1CCOCC1)CC2 : A: -17.03%; B: 6.535%; C: 3.738%; D: -11%; E: 0.2778%
- OCC1CCCN1c1cc(NCc2ccccn2)ncn1 (centres undefined) : A: 4.527%; B: -14.07%; C: 7.317%; D: 0.01443%; E: 9.685%
- Cc1ccc2c(c1)C(NCc1nnc3n1CCCCC3)CCCO2 (centres undefined) : A: -3.664%; B: 1.321%; C: -20.11%; D: -3.613%; E: -2.022%
- O=C(NCCCN1CCCCC1)c1ccc(-n2ccc3ccccc32)s1 : A: 1.377%; B: 79.49%; C: 15.22%; D: 25.34%; E: 8.464%
- Cc1cc2[nH]c(O)nc2cc1NCc1ccccc1 : A: 2.025%; B: 6.333%; C: 6.186%; D: -7.306%; E: 0.3201%

2 of the entries, repeated:

{"structure": "CCCNC(=O)c1nn(CC)cc1NC(=O)c1cn(C)nc1C", "A": 19.71, "B": 11.65, "C": 5.699, "D": -25.01, "E": 7.031}
{"structure": "CCc1c(C(=O)N2C[C@H]3CC[C@@H]2CN(c2cnccn2)C3)csc1C", "A": -9.15, "C": 5.319, "D": -28.85, "E": 1.17}